Measurements from the supplement of paper PMC10849652.
The list shows a part of the results. Residues, ends and D or L forms follow the SMILES beside them. *: point of attachment. Cbz = O=C(OCc1ccccc1)*

Protein sequences, listed by entry. Tags and fused reporters are not part of them. Lines headed by an entry give the natural chain unless they say otherwise; changes in a name come on top.
UniProt P28289: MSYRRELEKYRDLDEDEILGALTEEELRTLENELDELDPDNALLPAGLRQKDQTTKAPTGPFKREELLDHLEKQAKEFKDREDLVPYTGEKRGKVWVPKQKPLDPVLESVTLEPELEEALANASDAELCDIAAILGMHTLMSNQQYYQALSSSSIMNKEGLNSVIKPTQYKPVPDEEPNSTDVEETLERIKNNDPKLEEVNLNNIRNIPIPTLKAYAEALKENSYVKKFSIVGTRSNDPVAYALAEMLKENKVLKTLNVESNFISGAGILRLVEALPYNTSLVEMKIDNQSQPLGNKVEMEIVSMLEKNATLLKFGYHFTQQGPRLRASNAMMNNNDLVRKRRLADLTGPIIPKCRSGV
UniProt Q8IUX1: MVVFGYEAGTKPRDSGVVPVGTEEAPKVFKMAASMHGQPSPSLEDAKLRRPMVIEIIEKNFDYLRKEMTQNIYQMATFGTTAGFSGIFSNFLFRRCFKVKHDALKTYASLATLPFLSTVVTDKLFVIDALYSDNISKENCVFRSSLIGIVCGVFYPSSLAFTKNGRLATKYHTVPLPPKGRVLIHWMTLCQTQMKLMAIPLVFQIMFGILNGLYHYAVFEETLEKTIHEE
UniProt Q8NDZ6: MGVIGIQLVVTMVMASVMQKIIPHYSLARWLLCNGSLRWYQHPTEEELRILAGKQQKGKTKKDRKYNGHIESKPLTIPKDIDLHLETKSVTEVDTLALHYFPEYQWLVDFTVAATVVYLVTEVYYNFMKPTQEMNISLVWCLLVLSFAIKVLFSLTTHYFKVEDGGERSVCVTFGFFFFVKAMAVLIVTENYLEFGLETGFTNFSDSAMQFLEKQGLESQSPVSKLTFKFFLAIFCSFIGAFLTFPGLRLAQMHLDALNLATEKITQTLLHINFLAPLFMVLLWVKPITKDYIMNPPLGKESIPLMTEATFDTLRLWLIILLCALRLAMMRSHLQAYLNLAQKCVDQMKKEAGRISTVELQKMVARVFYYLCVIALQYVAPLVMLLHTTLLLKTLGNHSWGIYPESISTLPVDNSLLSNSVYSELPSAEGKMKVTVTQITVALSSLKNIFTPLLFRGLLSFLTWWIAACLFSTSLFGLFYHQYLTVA
UniProt Q9Y3A6: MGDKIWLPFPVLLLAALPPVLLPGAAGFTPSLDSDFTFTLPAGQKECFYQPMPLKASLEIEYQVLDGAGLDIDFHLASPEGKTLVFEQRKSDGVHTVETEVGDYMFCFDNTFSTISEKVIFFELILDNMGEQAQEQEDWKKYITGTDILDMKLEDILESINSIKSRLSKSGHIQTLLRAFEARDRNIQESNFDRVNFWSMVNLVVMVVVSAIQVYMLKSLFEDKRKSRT
UniProt Q9H0R3: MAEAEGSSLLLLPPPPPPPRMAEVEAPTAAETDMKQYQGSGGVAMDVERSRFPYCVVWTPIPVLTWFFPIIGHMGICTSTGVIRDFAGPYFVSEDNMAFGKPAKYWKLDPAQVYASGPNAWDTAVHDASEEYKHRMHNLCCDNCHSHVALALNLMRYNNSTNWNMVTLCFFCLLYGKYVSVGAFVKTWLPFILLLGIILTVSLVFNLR
UniProt Q96B77: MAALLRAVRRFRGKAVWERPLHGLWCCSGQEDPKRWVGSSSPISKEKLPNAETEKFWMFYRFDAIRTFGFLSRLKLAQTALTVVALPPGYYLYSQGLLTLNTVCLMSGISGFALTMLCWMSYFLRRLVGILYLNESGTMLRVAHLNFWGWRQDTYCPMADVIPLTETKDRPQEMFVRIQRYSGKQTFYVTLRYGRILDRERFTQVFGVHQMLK
UniProt P17152: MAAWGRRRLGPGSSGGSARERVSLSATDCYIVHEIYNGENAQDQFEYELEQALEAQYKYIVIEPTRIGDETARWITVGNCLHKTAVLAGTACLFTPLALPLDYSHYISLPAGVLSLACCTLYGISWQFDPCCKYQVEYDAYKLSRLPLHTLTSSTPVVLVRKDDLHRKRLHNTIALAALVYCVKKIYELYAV
UniProt Q9HD45: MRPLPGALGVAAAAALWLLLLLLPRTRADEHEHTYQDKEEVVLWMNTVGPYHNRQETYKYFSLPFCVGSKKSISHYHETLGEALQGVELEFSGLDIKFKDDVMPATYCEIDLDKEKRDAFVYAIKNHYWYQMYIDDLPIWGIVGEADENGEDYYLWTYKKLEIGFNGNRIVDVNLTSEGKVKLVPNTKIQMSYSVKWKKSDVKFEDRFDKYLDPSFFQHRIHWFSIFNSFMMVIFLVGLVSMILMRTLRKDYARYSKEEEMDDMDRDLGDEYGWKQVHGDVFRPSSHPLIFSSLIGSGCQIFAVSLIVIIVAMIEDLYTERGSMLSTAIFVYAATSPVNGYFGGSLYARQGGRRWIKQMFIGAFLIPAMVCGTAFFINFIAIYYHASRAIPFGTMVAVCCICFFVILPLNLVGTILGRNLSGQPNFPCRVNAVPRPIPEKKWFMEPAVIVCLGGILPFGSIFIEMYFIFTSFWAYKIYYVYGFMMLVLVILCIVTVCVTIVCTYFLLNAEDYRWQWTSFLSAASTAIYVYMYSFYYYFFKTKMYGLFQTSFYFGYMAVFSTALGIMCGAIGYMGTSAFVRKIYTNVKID

How the values were obtained:
Test in all cases: log2 fold change, soluble protein after heating vs DMSO (PISA); higher = thermal stabilisation; K562 cells, 10 uM, 30 min; active = over 0.2 and 3.5 SD of the protein, either way, in both replicates (recomputed)
[1] = compound: C1COCCN1CCN2C3=CC=CC=C3N=C2NC(=O)C4=CC(=CC=C4)[N+](=O)[O-] [IRAK-1-4 Inhibitor I]
Procedure, shortened: (§1)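 For each measurement, 10 μM compound was applied for 30 min to K562 cells at 2×10^6 cells/mL. Aliquots were heated for 3 min across 48°C-58°C, pooled, and extracted in PBS with 0.5% NP-40 at 4°C; the supernatant after 21,000xg for 90 min was soluble protein. This was quantified by TMTpro 16plex LC-MS/MS with channel sums equalised, and thermal stability was reported relative to control samples from duplicates, on a log2 fold-change scale.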

[2] = compound: C=CC(=O)N1CCC[C@@H](n2nc(-c3ccc(Oc4ccccc4)cc3)c3c(N)ncnc32)C1 [ibrutinib]
Procedure, shortened: as §1

[3] = compound: CC(=O)c1cnc2ccc(-c3cc(Cl)c(O)c(Cl)c3)nc2c1N[C@H]1CC[C@H](CN(C)C)CC1
Procedure, shortened: as §1

[4] = compound: CC(C)(C)Cn1c(N)nc2ccc(-c3[nH]c(C(C)(C)C)nc3-c3ccc(F)cc3)nc21 [ralimetinib]
Procedure, shortened: as §1

[5] = compound: CC(C)(O)CC(=O)NCCn1ccc2ncnc(Nc3ccc(Oc4cccc(C(F)(F)F)c4)c(Cl)c3)c21
Procedure, shortened: as §1

[6] = compound: CC(C)C1=C2N=C(C=C(N2N=C1)NCC3=CC=CC=C3)NCCCCCCN
Procedure, shortened: as §1

[7] = compound: CC(C)C[C@@H](C=O)NC(=O)[C@H](CC(C)C)NC(=O)[C@H](CC(C)C)NC(=O)OCc1ccccc1
Procedure, shortened: as §1

[8] = compound: CC(C)N(C[C@H]1O[C@@H](n2cnc3c(N)ncnc32)[C@H](O)[C@@H]1O)[C@H]1C[C@@H](CCc2nc3cc(C(C)(C)C)ccc3[nH]2)C1 [pinometostat]
Procedure, shortened: as §1

[9] = compound: CC1=C(C(CC(=O)N1)C2=CC=C(C=C2)C(F)(F)F)C(=O)NC3=C(C=C4C(=C3)C=NN4)F
Procedure, shortened: as §1

[10] = compound: CC1=C(C2=C(C=C1)C(=O)C3=CC=CC=C3N2CCCN)C
Procedure, shortened: as §1

[11] = compound: CC1=C(C=C(C=C1)NC(=O)C2=CC(=CC=C2)C(C)(C)C#N)NC3=CC4=C(C=C3)N=CN(C4=O)C
Procedure, shortened: as §1

[12] = compound: CC1=C(C=C(C=C1)NC(=O)C2=CC(=CC=C2)N(C)C)NC(=O)C3=CC=C(C=C3)O
Procedure, shortened: as §1

[13] = compound: CC1=CC=C(C=C1)SC2=C3C=C(SC3=CN=C2)C(=O)N
Procedure, shortened: as §1

[14] = compound: CC1=NC(=CC=C1)C2=C(N=C(N2)C(C)(C)C)C3=CC4=NC=CN=C4C=C3
Procedure, shortened: as §1

[15] = compound: CCCCN(Cc1ccc(C(=O)NO)cc1)C(=O)Nc1ccccc1 [Nexturastat A]
Procedure, shortened: as §1

[16] = compound: CCCS(=O)(=O)Nc1ccc(F)c(C(=O)c2c[nH]c3ncc(-c4ccc(Cl)cc4)cc23)c1F [vemurafenib]
Procedure, shortened: as §1

[17] = compound: CCCS(=O)(=O)Nc1ccc(F)c(C(=O)c2c[nH]c3ncc(Cl)cc23)c1F
Procedure, shortened: as §1

[18] = compound: CCCc1cc(C)[nH]c(=O)c1CNC(=O)c1cc(-c2ccnc(N3CCN(C)CC3)c2)cc2c1cnn2C(C)C
Procedure, shortened: as §1

[19] = compound: CCN(CC)Cc1ccc2cc(COC(=O)Nc3ccc(C(=O)NO)cc3)ccc2c1 [givinostat]
Procedure, shortened: as §1

[20] = compound: CCN(CCCOc1ccc2c(Nc3cc(CC(=O)Nc4cccc(F)c4)[nH]n3)ncnc2c1)CCOP(=O)(O)O [barasertib]
Procedure, shortened: as §1

Row | Target | log2 fold change [1] | log2 fold change [2] | log2 fold change [3] | log2 fold change [4] | log2 fold change [5] | log2 fold change [6] | log2 fold change [7] | log2 fold change [8] | log2 fold change [9] | log2 fold change [10] | log2 fold change [11] | log2 fold change [12] | log2 fold change [13] | log2 fold change [14] | log2 fold change [15] | log2 fold change [16] | log2 fold change [17] | log2 fold change [18] | log2 fold change [19] | log2 fold change [20]
1 | TMOD1 (UniProt P28289) | inactive: -0.037 | inactive: -0.034 | inactive: 0.072 | inactive: 0.052 | inactive: -0.033 | inactive: -0.032 | inactive: 0.063 | inactive: 0.084 | inactive: 0.068 | inactive: -0.046 | inactive: 0.052 | inactive: -0.028 | inactive: -0.038 | inactive: -0.003 | inactive: 0.048 | inactive: 0.143 | inactive: 0.013 | inactive: 0.113 | inactive: 0.05 | inactive: 0.079
2 | TMEM126B (UniProt Q8IUX1) | inactive: 0.027 | inactive: -0.011 | inactive: 0.023 | inactive: -0.029 | inactive: 0.017 | inactive: 0.001 | inactive: 0.01 | inactive: -0.018 | inactive: -0.054 | inactive: 0.009 | inactive: -0.042 | inactive: 0.032 |  | inactive: 0.029 | inactive: 0.021 | inactive: 0.1 |  | inactive: 0.011 | inactive: 0.025 | inactive: 0.046
3 | TMEM161B (UniProt Q8NDZ6) | inactive: 0.06 | inactive: -0.039 | inactive: 0.008 | inactive: -0.097 | active: -0.227 | inactive: -0.052 | inactive: 0.015 | inactive: -0.002 |  | inactive: 0.022 | inactive: 0.003 | inactive: -0.012 | inactive: 0.026 | inactive: 0.008 | inactive: -0.063 | inactive: 0.079 | inactive: 0.053 | inactive: 0.012 | inactive: 0.032 | inactive: -0.037
4 | TMED5 (UniProt Q9Y3A6) | inactive: 0.001 | inactive: -0.001 | inactive: 0.028 | inactive: -0.064 | inactive: -0.03 | inactive: -0.118 | inactive: -0.054 | inactive: 0.046 | inactive: -0.025 | inactive: 0.012 | inactive: 0.013 | inactive: -0.005 | inactive: -0.021 | inactive: -0.017 | inactive: -0.011 | inactive: -0.021 | inactive: -0.03 | inactive: 0.016 | inactive: 0.022 | inactive: 0.004
5 | TMEM222 (UniProt Q9H0R3) | inactive: 0.18 | inactive: 0.096 | inactive: -0.265 | inactive: -0.087 | inactive: -0.128 | inactive: 0.026 | inactive: -0.119 | inactive: -0.008 | inactive: 0.039 | inactive: 0.148 | inactive: -0.144 | inactive: -0.011 | inactive: -0.132 | inactive: -0.104 | inactive: -0.07 | inactive: 0.059 | inactive: 0.017 | inactive: -0.008 | inactive: -0.038 | inactive: -0.022
6 | TMEM186 (UniProt Q96B77) | inactive: -0.013 | inactive: 0.074 | inactive: 0.03 | inactive: -0.04 | inactive: 0.04 | inactive: 0.009 | inactive: 0.06 | inactive: -0.011 | inactive: 0.077 | inactive: 0.008 | inactive: 0.021 | inactive: -0.02 | inactive: -0.087 | inactive: -0.014 | inactive: 0.049 | inactive: -0.007 | inactive: -0.026 | inactive: -0.268 | inactive: -0.009 | inactive: -0.038
7 | TMEM11 (UniProt P17152) | inactive: -0.015 | inactive: 0.027 | inactive: 0.033 | inactive: 0.022 | inactive: 0.044 | inactive: -0.059 | inactive: -0.09 | inactive: 0.01 | inactive: 0.016 | inactive: 0.039 | inactive: -0.063 | inactive: -0.031 | inactive: 0.023 | inactive: 0.051 | inactive: -0.085 | inactive: 0.003 | inactive: 0.009 | inactive: -0.007 | inactive: -0.074 | inactive: 0.012
8 | TM9SF3 (UniProt Q9HD45) | inactive: 0.014 | inactive: 0.008 | inactive: 0.017 | inactive: 0.01 | inactive: -0.035 | inactive: 0.093 | inactive: -0.123 | inactive: 0.005 | inactive: 0.029 | inactive: 0.101 | inactive: 0.018 | inactive: -0.036 | inactive: -0.007 | inactive: -0.005 | inactive: -0.071 | inactive: -0.082 | inactive: -0.002 | inactive: 0.085 | inactive: 0.001 | inactive: -0.033
